Source: paper PMC2779591
Results are given in words; binding and its absence hold for the method and conditions named. Binding seen in cells or lysates may run through a third protein. Some binding calls cover weakened binding; strength is not graded here. Where a sequence is shown, tags or fusion partners need not be part of it.

The chains behind the UniProt entries cited, without tags or fusion partners. Where a name states a change or a piece, a line headed by the entry shows the natural chain unless it says otherwise.
UniProt Q04724: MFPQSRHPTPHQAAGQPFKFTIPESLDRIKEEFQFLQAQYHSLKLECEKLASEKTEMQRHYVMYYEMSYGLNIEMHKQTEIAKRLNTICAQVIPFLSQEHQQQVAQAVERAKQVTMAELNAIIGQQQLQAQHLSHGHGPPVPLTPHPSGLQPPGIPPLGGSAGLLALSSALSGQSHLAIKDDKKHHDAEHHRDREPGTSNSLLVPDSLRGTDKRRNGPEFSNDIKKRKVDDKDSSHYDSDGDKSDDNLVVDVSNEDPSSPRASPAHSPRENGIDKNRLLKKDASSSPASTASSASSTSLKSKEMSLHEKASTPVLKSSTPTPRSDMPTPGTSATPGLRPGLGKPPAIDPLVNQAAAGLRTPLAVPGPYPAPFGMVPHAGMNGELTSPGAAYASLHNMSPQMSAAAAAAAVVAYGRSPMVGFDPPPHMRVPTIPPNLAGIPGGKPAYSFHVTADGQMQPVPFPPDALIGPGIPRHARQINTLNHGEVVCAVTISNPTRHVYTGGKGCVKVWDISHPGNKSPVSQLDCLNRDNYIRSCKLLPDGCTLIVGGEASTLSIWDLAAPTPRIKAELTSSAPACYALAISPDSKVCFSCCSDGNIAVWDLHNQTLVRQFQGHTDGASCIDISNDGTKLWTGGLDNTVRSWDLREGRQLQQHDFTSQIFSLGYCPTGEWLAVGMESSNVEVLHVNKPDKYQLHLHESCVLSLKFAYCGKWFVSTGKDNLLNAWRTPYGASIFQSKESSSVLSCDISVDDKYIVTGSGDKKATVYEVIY

T1: HA epitope-tagged Engrailed1 (UniProt P09065)
T1 sequence: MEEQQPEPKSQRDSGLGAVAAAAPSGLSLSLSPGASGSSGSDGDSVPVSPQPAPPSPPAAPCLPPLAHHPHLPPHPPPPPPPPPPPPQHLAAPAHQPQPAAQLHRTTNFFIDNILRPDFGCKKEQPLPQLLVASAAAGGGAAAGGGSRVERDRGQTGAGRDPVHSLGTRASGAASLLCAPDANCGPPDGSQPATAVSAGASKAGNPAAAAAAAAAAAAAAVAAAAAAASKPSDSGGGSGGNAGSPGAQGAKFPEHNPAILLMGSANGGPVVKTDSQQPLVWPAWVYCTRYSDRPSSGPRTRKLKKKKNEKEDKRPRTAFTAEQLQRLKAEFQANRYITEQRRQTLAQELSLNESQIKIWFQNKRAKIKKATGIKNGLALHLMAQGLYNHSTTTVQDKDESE


What was measured:
[1] = biological target: T1, HA epitope-tagged Engrailed1; test: co-IP; HEK293 cells co-transfected with FLAG-Gro/TLE1 (WT or mutant) and HA-En1; lysate immunoprecipitated with anti-HA antibody, Western blot with anti-FLAG or anti-HA
[2] = biological target: FLAG epitope-tagged Gro/TLE1(S286A) (human) (UniProt Q04724); test: co-IP; HEK293 cells co-transfected with FLAG-Gro/TLE1 (WT or mutant) and FLAG-Hes1; lysate immunoprecipitated with anti-Gro/TLE1 antibody, Western blot with anti-FLAG
[3] = biological target: FLAG epitope-tagged Gro/TLE1(S286E) (human) (UniProt Q04724); test: as above
[4] = biological target: FLAG epitope-tagged Gro/TLE1(S289A) (human) (UniProt Q04724); test: as above
[5] = biological target: FLAG epitope-tagged Gro/TLE1(S289E) (human) (UniProt Q04724); test: as above
[6] = biological target: FLAG epitope-tagged Gro/TLE1(S298A) (human) (UniProt Q04724); test: as above
[7] = biological target: FLAG epitope-tagged Gro/TLE1(S298E) (human) (UniProt Q04724); test: as above
[8] = biological target: FLAG epitope-tagged wild type Gro/TLE1 (human) (UniProt Q04724); test: as above

| Molecule | binding [1] | further results |
| --- | --- | --- |
| FLAG epitope-tagged Gro/TLE1(S286A) (from UniProt Q04724 1-770) | binds | – |
| FLAG epitope-tagged Gro/TLE1(S286E) (from UniProt Q04724 1-770) | binds | – |
| FLAG epitope-tagged Gro/TLE1(S298A) (from UniProt Q04724 1-770) | binds | – |
| FLAG epitope-tagged Gro/TLE1(S298E) (from UniProt Q04724 1-770) | binds | – |
| FLAG-Hes1 (protein, UniProt Q04666 1-281) MPADIMEKNSSSPVAATPASVNTTPDKPKTASEHRKSSKPIMEKRRRARINESLSQLKTLILDALKKDSSRHSKLEKADILEMTVKHLRNLQRAQMTAALSTDPSVLGKYRAGFSECMNEVTRFLSTCEGVNTEVRTRLLGHLANCMTQINAMTYPGQAHPALQAPPPPPPSGPGGPQHAPFAPPPPLVPIPGGAAPPPGSAPCKLGSQAGEAAKVFGGFQVVPAPDGQFAFLIPNGAFAHSGPVIPVYTSNSGTSVGPNAVSPSSGSSLTADSMWRPWRN | – | binding [2]: binds; binding [3]: binds; binding [4]: binds; binding [5]: binds; binding [6]: binds; binding [7]: binds; binding [8]: binds |

More lines, main results first:

| binding [1] | Molecule | further results |
| --- | --- | --- |
| binds | FLAG epitope-tagged Gro/TLE1(S289A) (from UniProt Q04724 1-770) | – |
| binds | FLAG epitope-tagged Gro/TLE1(S289E) (from UniProt Q04724 1-770) | – |
| binds | FLAG epitope-tagged wild type Gro/TLE1 (from UniProt Q04724 1-770) | – |
